Measurements from publication PMC11297286.
Where two headings read alike, the source gives them in different places. Results are given in words; binding and its absence hold for the method and conditions named. Binding seen in cells or lysates may run through a third protein. Some binding calls cover weakened binding; strength is not graded here.

Chains of the proteins cited; added tags and fusions are not shown. Residues count along the entry.
UniProt P17844: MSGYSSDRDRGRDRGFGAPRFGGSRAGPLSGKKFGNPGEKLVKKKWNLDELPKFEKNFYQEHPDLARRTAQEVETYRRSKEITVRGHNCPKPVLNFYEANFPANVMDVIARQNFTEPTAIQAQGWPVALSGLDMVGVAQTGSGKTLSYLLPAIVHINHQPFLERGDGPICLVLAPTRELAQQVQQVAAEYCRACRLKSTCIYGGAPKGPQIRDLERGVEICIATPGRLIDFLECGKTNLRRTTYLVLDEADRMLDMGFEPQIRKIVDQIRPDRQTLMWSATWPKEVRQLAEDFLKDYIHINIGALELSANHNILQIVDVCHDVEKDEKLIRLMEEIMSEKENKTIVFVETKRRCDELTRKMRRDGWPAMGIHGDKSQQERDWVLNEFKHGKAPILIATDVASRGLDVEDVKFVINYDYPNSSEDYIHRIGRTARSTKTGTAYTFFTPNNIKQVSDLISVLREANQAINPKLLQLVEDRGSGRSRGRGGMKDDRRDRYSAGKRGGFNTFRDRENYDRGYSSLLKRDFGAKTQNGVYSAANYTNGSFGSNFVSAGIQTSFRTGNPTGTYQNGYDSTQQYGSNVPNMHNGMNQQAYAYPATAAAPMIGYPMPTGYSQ
UniProt O75581, residues 20-1613: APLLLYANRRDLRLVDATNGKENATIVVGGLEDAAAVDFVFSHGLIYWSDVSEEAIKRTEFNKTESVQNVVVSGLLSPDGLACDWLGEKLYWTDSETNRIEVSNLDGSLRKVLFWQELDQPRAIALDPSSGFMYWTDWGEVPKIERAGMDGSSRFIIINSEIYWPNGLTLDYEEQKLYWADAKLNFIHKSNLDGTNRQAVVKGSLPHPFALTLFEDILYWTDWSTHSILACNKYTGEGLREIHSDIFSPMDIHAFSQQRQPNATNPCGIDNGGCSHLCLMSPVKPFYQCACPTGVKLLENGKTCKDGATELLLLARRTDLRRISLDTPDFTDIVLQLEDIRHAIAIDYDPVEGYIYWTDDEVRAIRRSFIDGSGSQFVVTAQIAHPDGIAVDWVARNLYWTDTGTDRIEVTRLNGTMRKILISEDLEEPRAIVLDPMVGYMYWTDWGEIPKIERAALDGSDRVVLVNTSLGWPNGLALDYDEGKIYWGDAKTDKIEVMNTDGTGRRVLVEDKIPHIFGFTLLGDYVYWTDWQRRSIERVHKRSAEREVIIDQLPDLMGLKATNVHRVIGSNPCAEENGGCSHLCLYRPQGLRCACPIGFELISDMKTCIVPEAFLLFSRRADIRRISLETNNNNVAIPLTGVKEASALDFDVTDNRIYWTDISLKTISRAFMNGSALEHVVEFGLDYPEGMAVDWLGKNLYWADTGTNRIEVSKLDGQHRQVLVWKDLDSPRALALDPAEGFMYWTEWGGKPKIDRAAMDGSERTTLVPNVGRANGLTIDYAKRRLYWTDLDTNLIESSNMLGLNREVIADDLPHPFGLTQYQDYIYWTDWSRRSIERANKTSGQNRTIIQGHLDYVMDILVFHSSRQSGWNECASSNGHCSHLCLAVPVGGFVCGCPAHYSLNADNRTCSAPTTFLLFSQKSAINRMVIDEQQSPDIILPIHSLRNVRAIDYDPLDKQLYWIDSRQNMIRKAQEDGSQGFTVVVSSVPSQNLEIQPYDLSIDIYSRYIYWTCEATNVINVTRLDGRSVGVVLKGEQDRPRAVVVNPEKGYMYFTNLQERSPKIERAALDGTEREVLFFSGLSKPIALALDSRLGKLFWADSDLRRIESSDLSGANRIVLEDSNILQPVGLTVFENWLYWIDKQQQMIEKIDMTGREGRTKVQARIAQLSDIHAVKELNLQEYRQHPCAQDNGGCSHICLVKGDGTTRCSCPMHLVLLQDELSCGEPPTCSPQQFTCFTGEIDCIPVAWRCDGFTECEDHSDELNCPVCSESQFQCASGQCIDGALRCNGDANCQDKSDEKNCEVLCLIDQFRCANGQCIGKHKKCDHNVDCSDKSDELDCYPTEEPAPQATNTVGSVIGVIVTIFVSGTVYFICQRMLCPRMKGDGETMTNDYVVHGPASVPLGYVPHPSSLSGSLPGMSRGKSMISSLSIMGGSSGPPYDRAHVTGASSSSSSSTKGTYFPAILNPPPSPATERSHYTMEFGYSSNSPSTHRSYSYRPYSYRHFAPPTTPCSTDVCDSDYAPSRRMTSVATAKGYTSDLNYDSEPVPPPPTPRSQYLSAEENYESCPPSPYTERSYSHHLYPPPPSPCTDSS
UniProt Q9UBP4, residues 22-350: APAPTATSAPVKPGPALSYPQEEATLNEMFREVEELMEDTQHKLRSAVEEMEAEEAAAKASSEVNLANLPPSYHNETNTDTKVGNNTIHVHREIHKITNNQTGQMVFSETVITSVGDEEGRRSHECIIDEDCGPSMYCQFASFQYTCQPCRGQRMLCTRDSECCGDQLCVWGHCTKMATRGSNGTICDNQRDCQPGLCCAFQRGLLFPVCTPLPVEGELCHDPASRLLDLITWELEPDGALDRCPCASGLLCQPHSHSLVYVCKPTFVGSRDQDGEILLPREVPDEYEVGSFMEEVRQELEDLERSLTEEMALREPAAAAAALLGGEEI
UniProt Q86U44: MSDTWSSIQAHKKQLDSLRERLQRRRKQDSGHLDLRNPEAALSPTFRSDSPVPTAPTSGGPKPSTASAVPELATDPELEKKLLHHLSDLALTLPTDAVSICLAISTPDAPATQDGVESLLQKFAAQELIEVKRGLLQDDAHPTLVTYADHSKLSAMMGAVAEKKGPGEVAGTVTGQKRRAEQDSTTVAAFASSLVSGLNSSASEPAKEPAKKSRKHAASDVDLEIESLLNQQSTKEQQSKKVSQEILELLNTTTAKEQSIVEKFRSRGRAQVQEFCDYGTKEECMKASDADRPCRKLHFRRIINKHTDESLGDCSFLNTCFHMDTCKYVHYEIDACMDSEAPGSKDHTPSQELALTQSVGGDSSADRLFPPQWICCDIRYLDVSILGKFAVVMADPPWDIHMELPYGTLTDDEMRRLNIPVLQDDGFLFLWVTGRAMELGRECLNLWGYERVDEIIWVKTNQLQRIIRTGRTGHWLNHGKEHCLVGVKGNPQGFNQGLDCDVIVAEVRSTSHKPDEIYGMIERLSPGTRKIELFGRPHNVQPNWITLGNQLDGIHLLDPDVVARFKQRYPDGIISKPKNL

Key:
Experiment in all cases: co-IP; lysates of human AVICs in IP lysis buffer, incubated with specific antibodies for 4 h, Protein A/G Sepharose beads overnight at 4 °C, three washes with PBS, western blot; for Fig. 7d and Supplementary Fig. 7b cells with Dkk2 overexpression or Dkk2 knockdown
[1] = biological target: T1, Kremen1 (Krm1) (human (endogenous in human AVICs)) (UniProt Q96MU8)
T1 sequence: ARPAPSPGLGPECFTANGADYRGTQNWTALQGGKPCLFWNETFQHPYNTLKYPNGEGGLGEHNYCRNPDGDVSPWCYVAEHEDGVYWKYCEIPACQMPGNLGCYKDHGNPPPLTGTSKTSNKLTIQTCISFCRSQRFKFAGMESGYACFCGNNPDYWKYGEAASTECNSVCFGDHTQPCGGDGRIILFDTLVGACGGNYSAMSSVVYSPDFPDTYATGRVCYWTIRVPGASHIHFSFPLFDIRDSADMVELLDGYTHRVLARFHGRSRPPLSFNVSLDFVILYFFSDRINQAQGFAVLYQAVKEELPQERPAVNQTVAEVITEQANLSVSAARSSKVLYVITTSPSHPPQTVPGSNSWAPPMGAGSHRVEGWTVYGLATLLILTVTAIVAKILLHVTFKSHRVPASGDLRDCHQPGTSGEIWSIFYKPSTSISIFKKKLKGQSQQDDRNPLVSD

[2] = biological target: DEAD-box helicase 5 (DDX5) (human (endogenous in human AVICs)) (UniProt P17844)
[3] = biological target: LDL receptor-related protein 6 (LRP6) (human (endogenous in human AVICs)) (UniProt O75581)
[4] = biological target: T1, Kremen1 (Krm1) (human (endogenous in human AVICs)); remark: listed apart in the source

With “Dkk3 (from UniProt Q9UBP4 22-350) (ligand)” the binding [1] was “binds”.

In the case of “methyltransferase 3 (METTL3) (from UniProt Q86U44 1-580) (enzyme)”, the binding [2] is reported as “binds”.

B1: Dickkopf2 (Dkk2) (ligand, UniProt Q9UBU2 34-259)
chain: KLNSIKSSLGGETPGQAANRSAGMYQGLAFGGSKKGKNLGQAYPCSSDKECEVGRYCHSPHQGSSACMVCRRKKKRCHRDGMCCPSTRCNNGICIPVTESILTPHIPALDGTRHRDRNHGHYSNHDLGWQNLGRPHTKMSHIKGHEGDPCLRSSDCIEGFCCARHFWTKICKPVLHQGEVCTKQRKKGSHGLEIFQRCDCAKGLSCKVWKDATYSSKARLHVCQKI
For B1, the binding [3] was “binds” and the binding [4] was “binds”.
